{"source": "PubChem BioAssay AID1487", "about": "(National Center for Advancing Translational Sciences (NCATS), 2009)", "assay": "qHTS Assay for Modulators of Lamin A Splicing", "settings": "HeLa LMNA splicing GFP/RFP minigene ratio, 48 h", "method_in_brief": "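Read-out is the ratio of GFP to DsRed2 object intensity, acquired by 488 nm laser-scanning cytometry on HeLa lamin A-EGFP minigene reporter cells. Compound incubation 48 hrs at 37 °C in Opti-MEM with 2% FBS; DMSO 0.5% final.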", "key": {"[1]": {"settings": "measured here: GFP splicing reporter channel"}, "[2]": {"settings": "measured here: RFP viability control channel"}}, "note": "This is one part of the list. The main result of the screen is listed elsewhere. These columns were measured beside it and carry no call. Compounds called inactive in the main read-out are mostly missing here. Words in brackets tell the shape of the fitted curve; partial curves, single points and poor fits give uncertain potencies."}
{"smiles": "COc1ccc(C2CC(=O)c3c([nH]c(C(=O)OC(C)C)c3C)C2)cc1OC", "note": "(stereo not given)", "values": [{"measurement": "AC50", "setting": "[1]", "result": "0.0224 µM [falling, full curve, poor fit]"}]}
{"smiles": "COc1cc(-c2cc(C(=O)Nc3ccccc3N3CCOCC3)c3ccccc3n2)cc(OC)c1OC", "values": [{"measurement": "AC50", "setting": "[2]", "result": "3.98 µM [rising, full curve, poor fit]"}]}
{"smiles": "Cc1ccc(C(=O)N2CCN=C2SCc2ccc([N+](=O)[O-])cc2)cc1", "values": [{"measurement": "AC50", "setting": "[1]", "result": "35.5 µM [rising, single point]"}, {"measurement": "AC50", "setting": "[2]", "result": "35.5 µM [rising, single point]"}]}
{"smiles": "O=S1(=O)CCN2C(=N1)SC1=C2CCN(Cc2ccccc2)C1", "values": [{"measurement": "AC50", "setting": "[2]", "result": "0.0794 µM [rising, full curve, poor fit]"}]}
{"smiles": "Cc1ccc(C(=O)O)cc1NC(=S)NC(=O)C(c1ccccc1)c1ccccc1", "values": [{"measurement": "AC50", "setting": "[1]", "result": "2.82 µM [falling, partial curve]"}, {"measurement": "AC50", "setting": "[2]", "result": "3.98 µM [falling, partial curve]"}]}
{"smiles": "Cn1c(Cc2cccs2)nnc1SCC(=O)N1CCCc2ccccc21", "values": [{"measurement": "AC50", "setting": "[1]", "result": "22.4 µM [falling, single point]"}, {"measurement": "AC50", "setting": "[2]", "result": "25.1 µM [falling, single point]"}]}
{"smiles": "Fc1ccc(CNC(=S)NC2CCCC2)cc1", "values": [{"measurement": "AC50", "setting": "[1]", "result": "12.6 µM [rising, single point]"}, {"measurement": "AC50", "setting": "[2]", "result": "25.1 µM [rising, single point]"}]}
{"smiles": "Clc1ccc(OCc2nc(-c3ccccn3)n[nH]2)cc1", "values": [{"measurement": "AC50", "setting": "[2]", "result": "22.4 µM [rising, single point]"}]}
{"smiles": "OC(COc1ccc2ccccc2c1Br)Cn1cnc(-c2ccccc2)c1", "note": "(stereo not given)", "values": [{"measurement": "AC50", "setting": "[1]", "result": "25.1 µM [rising, single point]"}, {"measurement": "AC50", "setting": "[2]", "result": "15.8 µM [rising, single point]"}]}
{"smiles": "C=C(C)C1CC=C(C)/C(=N/NC(=S)Nc2ccccc2)C1", "note": "(stereo not given)", "values": [{"measurement": "AC50", "setting": "[2]", "result": "3.16 µM [rising, full curve]"}]}
{"smiles": "CCN(CC(=O)Nc1ccccc1OC)C(=O)COc1ccc2ccccc2c1", "values": [{"measurement": "AC50", "setting": "[2]", "result": "35.5 µM [rising, single point]"}]}
{"smiles": "O=C(Nc1ccccc1)c1ccccc1NS(=O)(=O)c1ccc(Cl)s1", "values": [{"measurement": "AC50", "setting": "[2]", "result": "2.24 µM [rising, partial curve]"}]}
{"smiles": "Cc1cc(C(=O)Nc2cc(C(C)(C)C)on2)c(C)o1", "values": [{"measurement": "AC50", "setting": "[1]", "result": "0.00891 µM [falling, full curve, poor fit]"}, {"measurement": "AC50", "setting": "[2]", "result": "0.01 µM [falling, full curve, poor fit]"}]}
{"smiles": "CC(=O)N1CCc2cc(S(=O)(=O)N3c4ccccc4CC3C)ccc21", "note": "(stereo not given)", "values": [{"measurement": "AC50", "setting": "[2]", "result": "11.2 µM [rising, single point]"}]}
{"smiles": "CC(C)C(=O)NC(c1cccs1)c1cc([N+](=O)[O-])c2cccnc2c1O", "note": "(stereo not given)", "values": [{"measurement": "AC50", "setting": "[1]", "result": "35.5 µM [falling, single point]"}, {"measurement": "AC50", "setting": "[2]", "result": "28.2 µM [falling, single point]"}]}
{"smiles": "COc1ccc(N2CCN(C(=O)c3c4c(nc5ccccc35)C(=O)N(C3CCCCC3)C4)CC2)cc1", "values": [{"measurement": "AC50", "setting": "[1]", "result": "0.0891 µM [falling, partial curve]"}]}
{"smiles": "CCC1CSC(Nc2ccc(C(=O)/C=C/c3cccc(C)c3)cc2)=N1", "note": "(stereo not given)", "values": [{"measurement": "AC50", "setting": "[1]", "result": "35.5 µM [falling, single point]"}, {"measurement": "AC50", "setting": "[2]", "result": "35.5 µM [falling, single point]"}]}
{"smiles": "COc1cccc(-c2cc(C(=O)N3CCN(c4ncccn4)CC3)c3ccccc3n2)c1", "values": [{"measurement": "AC50", "setting": "[2]", "result": "31.6 µM [rising, single point]"}]}
{"smiles": "Cc1cc(C)n2nc(SCc3nnc(-c4ccc(F)cc4)o3)nc2n1", "values": [{"measurement": "AC50", "setting": "[2]", "result": "0.0708 µM [rising, full curve, poor fit]"}]}
{"smiles": "CCOc1[nH]n(-c2ccc(Cl)cc2)c(=O)c1C=Nc1ccc(O)cc1", "values": [{"measurement": "AC50", "setting": "[2]", "result": "11.2 µM [falling, partial curve]"}]}
{"smiles": "CC(=O)N1CCc2cc(S(=O)(=O)NCCC(=O)NCCc3ccc(C)cc3)ccc21", "values": [{"measurement": "AC50", "setting": "[2]", "result": "22.4 µM [rising, single point]"}]}
{"smiles": "CC(C)c1ccc(/C=C/C(=O)NC2CCCCC2)cc1", "values": [{"measurement": "AC50", "setting": "[1]", "result": "0.708 µM [rising, full curve, poor fit]"}]}
{"smiles": "CSc1ccc(C2c3[nH]c4ccccc4c3CCN2C(=O)CCC2CCCC2)cc1", "note": "(stereo not given)", "values": [{"measurement": "AC50", "setting": "[1]", "result": "6.31 µM [falling, full curve]"}]}
{"smiles": "COC(=O)c1ccc(CNCC(=O)Nc2ccc(C(=O)OC)cc2)cc1", "values": [{"measurement": "AC50", "setting": "[2]", "result": "10 µM [rising, partial curve, poor fit]"}]}
{"smiles": "COc1cc(-c2cc(=O)c3ccccc3o2)ccc1O", "values": [{"measurement": "AC50", "setting": "[1]", "result": "35.5 µM [falling, single point]"}]}
{"smiles": "COc1ccc(NC(=O)CC2C(=O)N(C)C(=S)N2CCc2ccccc2F)cc1", "note": "(stereo not given)", "values": [{"measurement": "AC50", "setting": "[1]", "result": "35.5 µM [rising, single point]"}, {"measurement": "AC50", "setting": "[2]", "result": "20 µM [rising, single point]"}]}
{"smiles": "O=C(O)c1ccccc1C(=O)Nc1ccc(S(=O)(=O)NC2CCCCC2)cc1", "values": [{"measurement": "AC50", "setting": "[2]", "result": "0.282 µM [rising, full curve, poor fit]"}]}
{"smiles": "O=C(CCl)Nc1ccc(N=Nc2ccccc2)cc1", "values": [{"measurement": "AC50", "setting": "[1]", "result": "35.5 µM [falling, single point]"}, {"measurement": "AC50", "setting": "[2]", "result": "15.8 µM [rising, single point]"}]}
{"smiles": "COCCCNC(=S)N(Cc1ccccc1)Cc1ccccc1", "values": [{"measurement": "AC50", "setting": "[1]", "result": "10 µM [rising, partial curve, poor fit]"}]}
{"smiles": "Cc1ccc(C2c3c(-c4ccccc4O)n[nH]c3C(=O)N2Cc2ccncc2)cc1", "note": "(stereo not given)", "values": [{"measurement": "AC50", "setting": "[2]", "result": "10 µM [rising, partial curve, poor fit]"}]}
{"smiles": "CC(C)N=c1scc(-c2ccco2)n1/N=C/c1ccc(O)c(O)c1", "values": [{"measurement": "AC50", "setting": "[1]", "result": "3.55 µM [rising, single point]"}, {"measurement": "AC50", "setting": "[2]", "result": "25.1 µM [falling, single point]"}]}
{"smiles": "O=C(NNc1ccc(C2CCCCC2)cc1)C(O)(c1ccccc1)c1cccs1", "note": "(stereo not given)", "values": [{"measurement": "AC50", "setting": "[1]", "result": "17.8 µM [falling, single point]"}, {"measurement": "AC50", "setting": "[2]", "result": "12.6 µM [falling, single point]"}]}
{"smiles": "Cc1cccc(Cc2c(C)nc3nc(SCc4cccc(F)c4)nn3c2C)c1", "values": [{"measurement": "AC50", "setting": "[1]", "result": "0.0112 µM [falling, full curve, poor fit]"}]}
{"smiles": "COc1ccc(N2CCN(CC(O)c3c[nH]c4ccc(OC)cc34)CC2C)cc1", "note": "(stereo not given)", "values": [{"measurement": "AC50", "setting": "[1]", "result": "0.0251 µM [falling, single point]"}]}
{"smiles": "CCOc1nc(SCCOc2ccc(C)cc2)nc(N(C)C)n1", "values": [{"measurement": "AC50", "setting": "[1]", "result": "5.01 µM [rising, partial curve]"}, {"measurement": "AC50", "setting": "[2]", "result": "11.2 µM [rising, partial curve]"}]}
{"smiles": "COc1ccc(/C=N/NC(=O)c2ccccc2)cc1OS(=O)(=O)c1ccccc1", "values": [{"measurement": "AC50", "setting": "[1]", "result": "5.62 µM [rising, full curve]"}, {"measurement": "AC50", "setting": "[2]", "result": "7.94 µM [rising, partial curve, poor fit]"}]}
